Screening data

From PubChem BioAssay record AID1159506 (NCATS, 2015).

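Genome-wide siRNA knockdown in TC32 Ewing sarcoma cells, comparing luciferase light from an NR0B1-promoter reporter with a CMV-promoter reporter 48 hours after transfection.
Each siRNA was applied at 20 nM.
A z-score of the log NR0B1-over-CMV signal, less the median of siRNAs with the same seed; more negative means a stronger specific loss of the NR0B1 reporter.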

The strongest results of the screen are mostly left out here.
Sequences are the guide (antisense) strand, without overhang.

siRNA	target gene	seed-corrected z-score
UCAUCCACAACUUGGACAC	MISP	-1.054
UUCAUGGUGACGGUGUCCA	GPR78	0.3376
UUAUUUUGCCUGCUGAUCU	SPC25	-0.07445
AAGGCUUCCAAACCCAUUC	TBX18	0.09551
UGAGUUUCAGGCAAUGCAC	NXF5	-1.814
AAAACUUCUCGAAAUCUGC	RD3L	-1.002
AGUAUUGAAACAUCUGUCC	ODAM	0.8624
UCCAUACAAACGGUUACGG	MBNL2	-0.2129
UAAUCGAGCACUGUUAGAG	COL14A1	-0.7082
UUCGCACAGACUUUCCGCC	AGVR6190	2.426
UCAGAUACCUCACCUGGGC	PNMA2	0.5419
UCAAUCACAUCUAUCACCG	GALNT15	-0.01211
UAUCGAAGCAGGAACAGGC	TRIM33	0.1094
UUACUUGGAGUUGCUUAUC	RCCD1	-1.467
UGAAUUUGACUGUCGUUUC	CD34	1.719
UGUGGAAUCGUUCAAAUCC	DCDC2B	-0.2083
UGGUCUGCAGCAGUCAGUC	CTAG2	1.875
UGUGGUACAGCUUACACGG	ZC3H4	-1.315
UUCAGAGACAGUGACCACG	RFX1	-0.495
ACAACGUAAAUGUAGCGGG	ACER1	0.4896
UAUGGUUUUGCAGAUGGUG	KIAA1324	-0.9173
UUACUUUUCUCGGUAAUAG	THRB-AS1	-0.2055
UUUUGUGCAUCCAAUUUCC	DCUN1D4	-1.206
UGCUCGUAGAUGUUGGUGC	CDH23	0.5338
UUUGAUAGUAGCGAUCCUG	FCHSD2	-0.4898
UAAGUUACUGGGCCUAUGC	SLC25A34	2.676
UUUCCGGUGAUGGUAAUCC	LSR	-0.674
UUCACUUAGACUGCGGAUC	MCEE	-0.185
AAAGUGAGAAGGUACACCG	GPR42	0.7442
UUCGUGAACUGAUCCUUCA	CTSLP3	-0.3322
UCACUUAAAAAGCCCAUCC	ZNF286B	-1.031
UCGGUAAAAUCGGUCCUUC	PAK1	-0.4353
AUAGGAGUAAGAACUACUG	CCSER1	-0.6279
UUAUACGUUAGAGUAACUG	SI	-0.542
AAAUUGUCCGGAAAGAAGG	VIPR1	-0.123
UGAGUGAUGCAGCUCGUCC	SELENBP1	0.513
UCUUGAUGAACUAACAAUG	RASEF	0.4356
UAAGUAUUUAUGCAGCACG	FAM155B	0.3603
UUAGAGUAGUGCAUACUGC	ATP11C	0.3093
UUCCGUGUCAGAAGAGUAG	LDLRAD3	0.6755
UGAUUACCAACUUUCCCUU	ZNF860	0.009287
UCCUGGACCAGUGUUCUUU	LOC727961	-0.7637
UUUGCUGUAAAAGCUGAGG	RAD23A	1.001
UAACUGGUAUGCACAGUCU	C15orf61	0.4769
UCGAAGGUCAGUCAGUUCC	FKBP15	1.12
AGUCGAACAUGUCACAUCC	QTRT1	0.5467
UUCCCAUUAAUAUCGCAUC	SMYD4	-0.486
AUUGGUGUAAGAAUGCCUG	HSD17B6	0.1483
AGUGUGAACUCUGCGAUGC	ZNF211	0.5713
ACUUGCAUAAUUAACAAUG	CENPK	1.168
UUCGGUCACAGACUUGAUG	FABP1	-0.0728
UAUCUUCCCUGUGAGUAUC	ISG20L2	0.4359
UGAGUCAUCAGCCUGUCCG	SHH	0.1926
AGAGGUCUCUCUGAGAUGG	ZNF778	-0.5603
UUCUUGAUUAGGCCUAUCU	CHCHD2P10	-0.6592
AACCGGAUAGAAGAUGCUC	LMTK2	0.3788
UGAGAUAUCAGGGUCAUGG	CELSR2	-0.9842
UUCUCGGUGAAUUCCAGGC	GSG1L2	0.9682
UCUUGUUCAUGGACCACUC	CWF19L2	0.2611
UUAUUAACUGGCAGUGACU	SSX5	0.4828
AAAGGUGUAGGAACAUAUC	PGM2L1	-0.463
UGCCUCACAAGGUAAGUAC	VAV3	-0.08702
UCUGUAAGACGGGAUAUGC	SPATA19	0.06804
UUCUUUGAUGCGGCUGACG	SYNJ2BP	0.1501
UUAGUUGGUAGUGGAUACC	FAM92A1P2	-0.7365
AGCUCGUCAAGUUACAAGC	DOCK7	1.076
AAAGUGUCAAGGAUCCGUC	ARSE	0.248
UUAGGUUUCUGAGGGACUG	FCER1A	0.06675
AAAGAUACUGAUCAUGUCG	EFHC1	-0.1845
UUCUCAAUGACCUCUGGUG	TEX33	-0.5089
UGUCAUAUCACAUGAAGCC	ZNF324	-0.347
UUAGUGAUUAGGUAUUUGA	SLC25A28	0.2096
AUACGUUCAGGUAAGGUAG	C1GALT1	0.3452
UAAUACUCCAAAUCACGAC	AP1M2	-0.8942
AUACUUGAACCCGAAAUGC	NDRG4	-1.297
AGAAAGAAUGAGUACAGCC	C7orf66	-0.6281
UUAACGACUGCAUAUGCUC	RPGRIP1L	0.4741
UAAAGUAGCAGUUGGAACU	CLEC4A	-0.2152
UCUUUGUGAAGUAAUCGUC	KCNJ16	-1.103
AUCGUUUCAUAGGUCUUGC	CADPS	-0.3912
UUCCAUAUUCUAUUAGUUG	ATG4C	0.8419